Source: PubChem BioAssay AID540276 (National Center for Advancing Translational Sciences (NCATS), 2011)
About 5,400 (1.8%) of roughly 300,000 compounds were called active. Where a call stands in place of a potency, no number is given. Inconclusive means that the source gave no clear call. Such entries were picked first, then a sample of the others. The call rests on the fitted dose curve; tested in HEK293 cells. Where the call is inconclusive, the potency comes from a doubtful curve fit.

assay: qHTS for inhibitors of binding or entry into cells for Marburg Virus; settings: Marburg virus pseudotyped entry inhibition, cell reporter; activity change, negative = inhibition: at 37.8 µM (top of the series) unless noted
Potency means the concentration at half of the fitted maximal effect.

| Compound | Potency | activity change, negative = inhibition |
| --- | --- | --- |
| O=C(CSC(=S)N1CCCCC1)N1N=CCC1c1ccccc1 (stereo not drawn) | inactive |  |
| C/C(N)=C(/C#N)C(=O)COC(=O)CCSc1ccccc1Cl | inactive |  |
| Oc1[nH]c2ccc(Br)cc2c1N=NC(=S)Nc1ccc(F)cc1 | inconclusive: 35.5 µM [inhibitor, single point] |  |
| Cc1nn(C)cc1CN(C)C(=O)c1cc2nc(-c3ccco3)cc(C(F)(F)F)n2n1 | inconclusive: 10 µM [inhibitor, partial curve] |  |
| C/C=C/c1ccc(OCCCCOc2ccc(OC)cc2)c(OC)c1 | inconclusive: 35.5 µM [activator, single point] |  |
| Cc1ccc(-n2c(C)cc(/C=C3/SC(=O)N(CC(=O)N4CCOCC4)C3=O)c2C)nc1 | inactive |  |
| COc1ccc(/C=N/NC(=O)CN(CCc2ccccc2)S(=O)(=O)c2ccc(NC(C)=O)cc2)cc1OC | inconclusive: 35.5 µM [inhibitor, single point] |  |
| O=C(Cc1ccc(Cl)c(Cl)c1)Nc1ccc(S(=O)(=O)Nc2ncccn2)cc1 | inactive |  |
| O=C(NC1CCCCC1)c1ccc(-c2ccccc2)cc1 | inconclusive: 2.51 µM [activator, full curve] |  |
| Cc1cc(C)nc(NCCO)n1 | inconclusive: 12.6 µM [activator, single point] |  |
| CCC1CCCCN1S(=O)(=O)c1c(C)n(C)c(=O)n(C)c1=O (stereo not drawn) | inactive |  |
| COc1ccc(-c2noc(CCCOc3ccccc3)n2)cc1OC | inconclusive: 5.62 µM [inhibitor, single point] |  |
| COc1ccc(CCNC(=O)Cn2nnc(C(=O)Nc3cccc(C)c3C)c2N)cc1OC | inactive |  |
| Cc1cc(C)c2nc3s/c(=C/c4ccc5c(c4)n(C)c(=O)n5C)c(=O)n3c2c1 | inactive |  |
| Cc1csc2cc(-c3cccc([N+](=O)[O-])c3)c(-c3cccc([N+](=O)[O-])c3)c[n+]12 | inactive |  |
| N#CC1=C(N)Oc2cc(N)ccc2C1c1ccc(Cl)cc1 (stereo not drawn) | inconclusive: 10 µM [inhibitor, partial curve, poor fit] |  |
| CCOC(=O)C1CCCN(C(=O)CC(c2ccccc2)c2ccccc2)C1 (stereo not drawn) | inconclusive: 14.1 µM [inhibitor, single point] |  |
| Cc1cc(C)c(N=Cc2c(O)[nH]c(=O)[nH]c2=O)c(C)c1 | inactive |  |
| O=C(CN1CCCCCC1)Nc1ccc(Oc2ccccc2)cc1 | inconclusive: 35.5 µM [inhibitor, single point] |  |
| CC1CCCN(Cc2nc(Cc3ccccc3Cl)no2)C1 (stereo not drawn) | inactive |  |
| CCOc1ccccc1NC(=O)CN(c1ccc(C)cc1)S(=O)(=O)c1c(C)n[nH]c1C | inconclusive: 22.4 µM [inhibitor, single point] |  |
| N/C(=N\OS(=O)(=O)c1ccc(Cl)cc1)c1cccnc1 | inactive |  |
| Fc1ccc(-c2nc3ccccc3[nH]2)cc1 | inactive |  |
| Cc1ccc(S(=O)(=O)N2CN(Cc3ccco3)c3nc4ccccc4nc32)cc1 | inactive |  |

A different layout for four compounds above:
Compound,Potency,"activity change, negative = inhibition"
Cc1csc2cc(-c3cccc([N+](=O)[O-])c3)c(-c3cccc([N+](=O)[O-])c3)c[n+]12,inactive,
N#CC1=C(N)Oc2cc(N)ccc2C1c1ccc(Cl)cc1 (stereo not drawn),"inconclusive: 10 µM [inhibitor, partial curve, poor fit]",
CCOC(=O)C1CCCN(C(=O)CC(c2ccccc2)c2ccccc2)C1 (stereo not drawn),"inconclusive: 14.1 µM [inhibitor, single point]",
Cc1cc(C)c(N=Cc2c(O)[nH]c(=O)[nH]c2=O)c(C)c1,inactive,

Next part.

| Compound | Potency | activity change, negative = inhibition |
| --- | --- | --- |
| CCOC(=O)c1c(NC(=O)COC(=O)C2CCC2)sc(C(=O)N(C)C)c1C | inactive |  |
| COCCCNC(=O)CN1C(=O)COc2ccc(S(=O)(=O)N3CC(C)CC(C)C3)cc21 (stereo not drawn) | inactive |  |
| C=CCNC(=O)C1CC(=O)N(c2ccc(OCC(=O)N3CCCC3)cc2)C1 (stereo not drawn) |  | inconclusive: 14.3% [activator] [at 46.1 µM] |
| Cc1ccc(Cn2cccc2/C=C2/C(=N)N3C=CSC3=NC2=O)cc1 | inconclusive: 0.355 µM [inhibitor, partial curve, poor fit] |  |
| Cn1c(CN2CCN(S(C)(=O)=O)CC2)nc2cc([N+](=O)[O-])ccc21 | inconclusive: 1.58 µM [activator, partial curve, poor fit] |  |
| COc1ccc(Sc2ccccc2CN(C)C)cc1OC | inactive |  |
| O=[N+]([O-])c1cc(C(F)(F)F)ccc1Sc1nccn1Cc1ccccc1 | inactive |  |
| COc1cccc(NC(=S)N(Cc2ccco2)C(C)c2ccco2)c1 (stereo not drawn) | inconclusive: 11.2 µM [activator, partial curve] |  |
| Cc1ccc(C(=O)CSc2nnc(-c3ccccc3)n2-c2ccccc2)o1 | inactive |  |
| CCOC(=O)c1c(C)n(-c2ccc(C)cc2)c2ccc(OCC(O)CN3CCN(C)CC3)cc12 (stereo not drawn) | inconclusive: 3.55 µM [inhibitor, partial curve, poor fit] |  |
| C=CCN1C(=O)c2ccc(C(=O)N3CCN(S(=O)(=O)c4cccc(Cl)c4)CC3)cc2C1=O | inactive |  |
| C#CC(N)CCC(=O)O (stereo not drawn) | inconclusive: 4.47 µM [inhibitor, partial curve, poor fit] |  |
| CCCOc1c(Br)cc(C(N)=O)cc1OCC | inconclusive: 16.4 µM [inhibitor, partial curve, poor fit] |  |
| Cc1ccc2[nH]c(=O)c(CN(CCCN(C)C)C(=S)NCCc3ccccc3)cc2c1 | inconclusive: 14.1 µM [inhibitor, single point] |  |
| Cc1cc(C)c2c(N)c(C(=O)NN3CC(=O)N(c4ccccc4F)CC3=O)sc2n1 | inactive |  |
| CCN1C(=O)N/C(=C/c2ccc(Sc3ccc(C)cc3)o2)C1=O | inactive |  |
| Cc1c(NC(=O)/C(C#N)=C/c2cccs2)c(=O)n(-c2ccccc2)n1C | inactive |  |
| O=c1[nH]c(O)c(N=Nc2ccc(Cl)c(S(=O)(=O)Nc3ccccc3Cl)c2)c(=O)[nH]1 | inconclusive: 1 µM [activator, partial curve, poor fit] |  |
| Nc1n[nH]c(-c2ccc(F)cc2)n1 | inactive |  |
| S=C(NCCc1ccccc1)Nc1ccc(Br)cn1 | inactive |  |
| CC(C)C(=O)Nc1ccc2c(c1)nc1n2CCSC1 | inconclusive: 2.31 µM [activator, full curve] |  |
| COc1ccc(N(C(=O)Cn2nnc(-c3ccccc3F)n2)C(C(=O)NCC2CCCO2)c2ccc(Cl)cc2)cc1 (stereo not drawn) | inconclusive: 4.47 µM [inhibitor, single point] |  |
| O=C(CN(Cc1cccs1)S(=O)(=O)c1ccc(S(=O)(=O)N2CCCCC2)cc1)Nc1ccccc1 | inconclusive: 12.6 µM [inhibitor, single point] |  |
| COc1cccc(C(=O)/C=C/c2ccc(OCC#N)c(OC)c2)c1 | active: 14.6 µM |  |
